PubChem BioAssay AID686943 | Drosophila RNAi Screening Center – 2013

Test: 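Knockdowns that increase or decrease active ERK after insulin receptor stimulation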 (primary screen)
Cells: Drosophila S2R+ haemocyte-like cells expressing YFP-tagged ERK (Rolled)
Reagent: long dsRNA against Drosophila genes
Challenge: insulin stimulation versus unstimulated cells; dose and duration not given
Measurement: 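Antibody staining for doubly phosphorylated ERK divided by ERK-YFP signal, as plate z-scores, in insulin-treated and untreated cells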
Direction: replicate 1, z-score of dpERK with insulin: higher = more active ERK per ERK-YFP after insulin
In all, the deposit lists about 23,000 reagents; this is a random part of those with a known target gene and a result. 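Extra replicates exist only for a retested subset of genes; insulin dose and duration not given; both raised and lowered dpERK matter.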 A plus sign joins genes that one reagent is predicted to hit. Not all columns of the deposit are shown. Not given: the amount of reagent, the time to read-out.

gene knocked down	amplicon	replicate 1, z-score of dpERK with insulin
CG1622 (GeneID 32282)	DRSC19745	-0.05
CG15570 (GeneID 31366)	DRSC18058	-0.02
CG1314 (GeneID 33066)	DRSC20495	-0.56
CG33282 (GeneID 2768939)	DRSC00422	0.78
enok (GeneID 37859)	DRSC04096	0.35
CG32832 (GeneID 318237)	DRSC01562	0.07
scf (GeneID 38145)	DRSC08735	-0.24
CG17249 (GeneID 38201)	DRSC08517	0.19
Acp26Ab (GeneID 33816)	DRSC01856	0.11
CG4866 (GeneID 36976)	DRSC06899	0.62
porin (GeneID 34500)	DRSC03594	-0.23
CG2247 (GeneID 32111)	DRSC19844	0
uno (GeneID 35778)	DRSC07244	0.36
CG5122 (GeneID 34703)	DRSC02816	0.48
Fbxl4 (GeneID 32378)	DRSC19805	0.47
CG13511 (GeneID 37597)	DRSC04153	0.6
CG9168 (GeneID 38163)	DRSC08633	-0.01
CG2889 (GeneID 31977)	DRSC18236	-0.15
Trf4-2 (GeneID 42983)	DRSC15237	0.82
CG31924 (GeneID 319030)	DRSC00689	1.19
CG3308 (GeneID 42527)	DRSC15474	0.92
CG31436 (GeneID 318734)	DRSC14661	1.32
CR11023 (GeneID 33155)	DRSC00302	0.13
CG15256 (GeneID 34911)	DRSC01491	0.94
CG15256 (GeneID 34911)	DRSC01940	-0.22
Rab3 (GeneID 36127)	DRSC07523	-0.19
CG14636 (GeneID 40526)	DRSC12223	-0.47
VhaPPA1-2 (GeneID 41806)	DRSC16176	0.97
CG9287 (GeneID 34194)	DRSC03186	0.76
CG9287 (GeneID 34194)	DRSC22790	-1.26
CG44014 + CG44013	DRSC14995	-0.05
CG31606 (GeneID 318842)	DRSC01012	-0.17
p120ctn (GeneID 3355143)	DRSC07753	0.24
tilB (GeneID 33130)	DRSC20634	-0.35

3 entries from above, reformatted:
| gene knocked down | amplicon | replicate 1, z-score of dpERK with insulin |
| --- | --- | --- |
| porin (GeneID 34500) | DRSC03594 | -0.23 |
| CG2247 (GeneID 32111) | DRSC19844 | 0 |
| uno (GeneID 35778) | DRSC07244 | 0.36 |

The list goes on.
gene knocked down	amplicon	replicate 1, z-score of dpERK with insulin
Takl1 (GeneID 318725)	DRSC13443	0.24
gammaTub37C (GeneID 35199)	DRSC03535	0.48
CG6847 (GeneID 32778)	DRSC19213	-0.04
CG6847 (GeneID 32778)	DRSC20009	0.5
CG31870 (GeneID 318993)	DRSC21681	0.23
Ccp84Aa (GeneID 40825)	DRSC12586	-0.54
AlaRS (GeneID 34156)	DRSC01851	-0.58
CG34015 (GeneID 3885570)	DRSC19140	-0.05
CG31156 (GeneID 42669)	DRSC15753	0.37
CG31156 (GeneID 42669)	DRSC15755	-0.28
CG7950 + Rpp14a	DRSC16353	2.06
inaF-C (GeneID 5740497)	DRSC18902	0.71
CG14852 (GeneID 41765)	DRSC14976	0.04
CG5402 (GeneID 43306)	DRSC15792	0.58
Lpin (GeneID 35790)	DRSC07241	0.5
Tim17b1 (GeneID 40635)	DRSC12179	0.98
CG13560 (GeneID 37758)	DRSC04198	1.09
CG11537 (GeneID 38373)	DRSC08200	0.09
CG43397 + CG12902	DRSC06217	-0.13
Rif1 (GeneID 246445)	DRSC05593	-0.37
CG11756 (GeneID 32074)	DRSC19424	0.02
CG7968 (GeneID 34802)	DRSC01903	-0.06
CG30095 (GeneID 246453)	DRSC07175	-0.62
